Among the data in article PMC9106352 are binding values, retold here.

Amino acid sequences for entries named in this document (tags omitted). Residues count along the entry.
UniProt Q03265, residues 44-553: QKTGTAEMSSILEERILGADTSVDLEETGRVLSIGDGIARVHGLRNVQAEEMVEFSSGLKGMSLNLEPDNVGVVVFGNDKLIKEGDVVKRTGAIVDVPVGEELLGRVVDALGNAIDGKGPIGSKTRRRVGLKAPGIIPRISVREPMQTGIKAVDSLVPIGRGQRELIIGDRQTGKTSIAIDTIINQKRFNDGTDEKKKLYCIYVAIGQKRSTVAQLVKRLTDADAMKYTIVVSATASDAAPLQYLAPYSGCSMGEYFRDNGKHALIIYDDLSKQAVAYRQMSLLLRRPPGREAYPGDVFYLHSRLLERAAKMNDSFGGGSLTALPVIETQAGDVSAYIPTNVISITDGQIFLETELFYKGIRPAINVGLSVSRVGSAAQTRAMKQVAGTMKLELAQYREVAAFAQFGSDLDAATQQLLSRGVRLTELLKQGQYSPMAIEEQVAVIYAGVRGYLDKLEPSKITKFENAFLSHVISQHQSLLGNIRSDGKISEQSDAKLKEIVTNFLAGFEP
UniProt P56480, residues 47-529: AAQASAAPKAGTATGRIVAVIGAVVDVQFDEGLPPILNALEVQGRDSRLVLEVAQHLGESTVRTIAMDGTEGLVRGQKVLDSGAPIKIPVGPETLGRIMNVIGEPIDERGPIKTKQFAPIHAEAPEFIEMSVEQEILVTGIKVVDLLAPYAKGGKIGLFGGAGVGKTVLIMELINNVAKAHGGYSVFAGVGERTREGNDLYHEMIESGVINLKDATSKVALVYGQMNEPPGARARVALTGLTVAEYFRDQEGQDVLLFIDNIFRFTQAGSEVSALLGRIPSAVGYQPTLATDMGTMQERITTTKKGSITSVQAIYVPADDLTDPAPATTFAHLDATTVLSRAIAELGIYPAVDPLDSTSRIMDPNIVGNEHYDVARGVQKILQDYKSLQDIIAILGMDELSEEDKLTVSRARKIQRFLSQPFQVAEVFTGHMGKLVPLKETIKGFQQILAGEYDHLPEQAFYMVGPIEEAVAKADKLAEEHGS

No constants are given. Whether binding was seen depends on the method and setting. In cells and extracts the contact can be indirect. Some entries that bind do so weakly or less than the wild type.

For the test, the target named is FoF1-ATP synthase α subunit (ATPA) (mouse (endogenous in mouse heart)) (UniProt Q03265). Description: cross-linking; isobaric quantitative PIR cross-linker GG-BDP-NHP (10 mM) added to minced heart tissue of 5 TAC and 5 sham-operated mice in 170 mM Na2HPO4 pH 8.0, 30 min, room temperature; mitochondria then isolated, digested, cross-linked peptides enriched on avidin and identified by LC-MS/MS; links mapped on PDB 6j5k.

As for “FoF1-ATP synthase β subunit (ATPB) (from UniProt P56480 47-529)”, the binding result is given as “binds”.
